Experimental data reported in PubChem BioAssay AID1439 (NMMLSC, 2008).
Several values for one entry are separate records, joined by “and”; a condition that tells them apart may be missing. Equal values may be shown once. Hit rate of the full screen: of about 220,000 compounds, about 770 (0.35%) were called active. Inconclusive results, whose numbers are uncertain, are shown with a selection of clear calls. Rule as the data show it: active = binding response below about 49% or above about 150%; inconclusive = no clear call, values can overlap the other calls; inactive = in between.

By UniProt entry, the sequences of proteins in these tests, tags left out.
UniProt P09471, whole entry, looked up: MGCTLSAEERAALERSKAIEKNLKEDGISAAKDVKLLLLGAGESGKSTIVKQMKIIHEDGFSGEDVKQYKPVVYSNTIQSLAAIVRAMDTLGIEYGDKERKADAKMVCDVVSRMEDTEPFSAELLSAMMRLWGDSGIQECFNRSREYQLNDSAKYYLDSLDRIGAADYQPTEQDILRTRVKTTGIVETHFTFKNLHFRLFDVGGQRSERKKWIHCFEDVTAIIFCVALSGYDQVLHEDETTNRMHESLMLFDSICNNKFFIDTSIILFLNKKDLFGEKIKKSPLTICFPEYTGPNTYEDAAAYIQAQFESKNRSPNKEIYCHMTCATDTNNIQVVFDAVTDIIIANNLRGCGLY

These molecules were tested against Guanine nucleotide-binding protein G(o) subunit alpha (Homo sapiens) (UniProt P09471) (assay: RGS7-Galphao binding modulators, primary screen, biochemical, multiplexed bead flow cytometry (AID 1439;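 also: fluorescent Galphao held in activated GDP-AlF4 state binding bead-coupled RGS7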)). Details: at 10 µM, actives lie on both sides.

SMILES	binding response (% of control)
COc1ccc(NN=Nc2nc3c([nH]2)c(=O)n(C)c(=O)n3C)cc1	inconclusive: 59.9%
CC(C)c1cc(C(=O)OCC(=O)NC(=O)NCc2ccco2)c(O)c(C(C)C)c1	inconclusive: 109%
CC(C)(C)C(=O)Nc1cccc(-c2cc(-c3c(Cl)cccc3Cl)no2)c1	inconclusive: 146%
CC(=O)Nc1ccc(S(=O)(=O)N2CCN(CC3CC4C=CC3C4)CC2)cc1 (stereo not given)	inactive: 101%
CC(=O)Nc1ccc(SC[C@H](Cc2ccccc2)N2CCN(CC(C)C)CCC2=O)cc1	inconclusive: 96%
CCOc1ccc2c(c1)[nH]c(=S)n2C	inconclusive: -507%
COc1cc(C(C#N)N2CCC(c3ccccc3)=N2)ccc1O (stereo not given)	inconclusive: 63.2%
COCCn1c(SCC(=O)Nc2ccc(OC)c(S(N)(=O)=O)c2)nc2ccccc21	inconclusive: 64.2%
CC(Sc1n[nH]c(N)n1)C(=O)Nc1ccc(Cl)cn1 (stereo not given)	inconclusive: 117%
COc1ccc2c(c1)c(C(=O)N/N=C/c1cn(C)c3ccccc13)c(C)n2C	inconclusive: 99.2%
O=C(O)c1cccc(NC(=S)NC(=O)c2ccncc2)c1	inconclusive: 118%
CC(C)CC1NC(=O)N(CCCCN2C(=O)c3ccccc3C2=O)C1=O (stereo not given)	inconclusive: 80.3%
CCOc1ccc(CC(=O)NNC(=S)NC)cc1	inconclusive: 97.4%
CCCS(=O)(=O)N1CCN(Cc2c[nH]c3ccccc23)CC1	inactive: 103%
COc1ccc(NC(=O)Nc2c(C)noc2-c2ccccc2)cc1	inconclusive: 155%
Cc1ccccc1-n1ncc(C(C)NC(=O)c2ccco2)c1C (stereo not given)	inactive: 102%
O=C(Nc1nc(-c2ccccn2)cs1)c1cc(Cl)ccc1[N+](=O)[O-]	inconclusive: 69.1%
CC12c3ccccc3C(c3ccccc31)C1C(=O)N(c3cccnc3)C(=O)C12 (stereo not given)	inactive: 102%
Cn1nc(C(F)(F)F)c(-c2cccc(C(F)(F)F)c2)c1NC(=O)Nc1ccc(F)cc1	inconclusive: 137%
COc1ccccc1NC(=O)Nc1ccccc1C(N)=O	inconclusive: 84.6%
Oc1ccc(C=NC2CCCCC2)c(O)c1	inactive: 106%
COCCN(Cc1ccco1)C(=O)Cn1ncc2c(=O)oc3ccccc3c21	inconclusive: 41.6%
Cc1cnc(NC(=O)CSc2nnc(COc3ccccc3)o2)s1	inconclusive: 99.2%

SMILES	binding response (% of control)
Cn1ccnc1Sc1cc(Cl)ccc1[N+](=O)[O-]	inconclusive: 145%
Cc1onc(-c2c(F)cccc2Cl)c1C(=O)N=C(N)N1CCCC1	inconclusive: 100%
CN(C)S(=O)(=O)c1ccc(C(=O)Nc2nnc(SCc3cccc(F)c3)s2)cc1	inactive: 102%
Cc1cccc(/N=C/c2sc3ccccc3c2O)n1	inconclusive: 77%
O=C(NNS(=O)(=O)c1ccc2ccccc2c1)c1cc(-c2ccccn2)nc2ccccc12	inactive: 95.9%
O=C(Nc1ccccc1C(=O)OCC(=O)c1c[nH]c2ccccc12)c1ccco1	inactive: 101%
CCCCC1=CC2=CC(=O)C(C)(OC(=O)CC)C(=O)C2=CN1CC(C)C (stereo not given)	inconclusive: 117%
CC1(C)Cc2nc3oc4c(NCCCN5CCOCC5)ncnc4c3cc2CO1	inconclusive: 92.4%
CC(=O)c1c(-c2ccc(Cl)cc2Cl)noc1C	inconclusive: 32.1%
COC(=O)/C=C(\C)N=Nc1c(O)[nH]c2ccccc12	inconclusive: 118%
FC(F)(F)c1cc(-c2cccs2)nc2cc(-c3cccs3)nn12	inconclusive: 98.2%
OCCNc1cnc2ccccc2n1	inconclusive: 119%
Cn1cc(/C=C2\SC(=O)N(c3ccc(O)cc3)C2=O)c2ccccc21	inconclusive: 97.6%
CC(=O)Nc1ccc(S(=O)(=O)NCCCN2CCN(Cc3ccccc3)CC2)cc1Cl	inconclusive: 78.4%
COCCCn1c(O)c(/C=C2\N=C(C#N)C(=Nc3ccc(C)cc3)O2)sc1=S	inconclusive: -34.2%
Nc1nc(N)c(N=Nc2ccc(C(=O)O)cc2)c(N)n1	inconclusive: 130%
CCC(=O)Oc1ccc(NC(=O)CSCc2ccccc2)cc1	inconclusive: 89.9%
O=C(c1ccc(Cl)cc1)N1CCc2c([nH]c3ccccc23)C1C(F)(F)F (stereo not given)	inconclusive: 74.4%
CCc1cc(C(=O)N=Nc2c(O)[nH]c3c(Br)cc(Br)cc23)c2ccccc2n1	inactive: 101%
Cn1cccc1/C=N/NC(=O)c1cccc(OC(F)(F)C(F)F)c1	inactive: 104%
COc1ccc(NC(=O)c2nc(SC)ncc2Cl)cc1	inconclusive: 98.1%
[O-]c1c[n+](-c2ccccc2)no1	inconclusive: 99.5%
NC1=NC(c2ccccc2)N=C(Nc2ccccc2)N1 (stereo not given)	inconclusive: 214%

Arranged by number of heavy atoms (smallest number first): part of the list above.
SMILES	binding response (% of control)
Cn1cc(/C=C2\SC(=O)N(c3ccc(O)cc3)C2=O)c2ccccc21	inconclusive: 97.6%
O=C(c1ccc(Cl)cc1)N1CCc2c([nH]c3ccccc23)C1C(F)(F)F (stereo not given)	inconclusive: 74.4%
CN(C)S(=O)(=O)c1ccc(C(=O)Nc2nnc(SCc3cccc(F)c3)s2)cc1	inactive: 102%

The listing continues:

SMILES	binding response (% of control)
CC(=Nc1ccccc1O)c1sc2ccccc2c1O	inconclusive: 101%
CCOC(=O)c1cc(-c2csc(-c3ccc(C(C)(C)C)cc3)n2)on1	inconclusive: -60.1%
COC(C[C@H](O)[C@@H](C)[C@H](O)COCc1ccccc1)OC	inconclusive: 107%
COCCn1c(=O)[nH]c(=O)c2cc(C(=O)c3cc(Cl)ccc3O)cnc21	inconclusive: 106%
COc1ccc(C2=NN(c3ccccc3)C(c3cn(CCC(=O)O)nc3-c3ccccc3)C2)cc1 (stereo not given)	inconclusive: 95.2%
Cc1ccc(C(C)C)c(OC/C(O)=C(\C#N)c2nc3ccccc3[nH]2)c1	inconclusive: 105%
CC(C)(C)c1ccc(C(=O)NNc2cc(Cl)cc(Cl)c2)cc1	inconclusive: 73.8%
CCOc1ccc(CC(C(N)=O)C(N)=O)cc1	inconclusive: 95.7%
COc1ccc(-n2c(O)c(/C=N/Nc3nc(C)cc(C)n3)c3ccccc3c2=O)cc1OC	inconclusive: 115%
CCOC(=O)C1=C(c2ccccc2)Nc2ncnn2C1c1ccc(C(=O)O)cc1 (stereo not given)	inconclusive: 129%
Cc1noc(C)c1C(=O)NNc1cc(Cl)ccc1Cl	inconclusive: 83.3%
COc1ccc(C(=O)Nc2nc3ccccc3[nH]2)cc1S(=O)(=O)N1CCOCC1	inconclusive: 102%
COc1ccc(C(C)=O)cc1COc1cc(C)c(Cl)c(C)c1	inconclusive: 89.9%
CC(=O)NC(NC(=S)Nc1c(C)n(C)n(-c2ccccc2)c1=O)C(Cl)(Cl)Cl (stereo not given)	inconclusive: 87.8%
Cc1ccc(C(=O)N(C)c2ccc(OCC(=O)N3c4ccc(C)cc4C4CN(C)CCC43)cc2)cc1 (stereo not given)	inconclusive: 111%
CC(CCc1ccccc1)NCC(O)COc1ccccc1 (stereo not given)	inconclusive: 90.8%
CN1CCN(NC(=O)c2cc([N+](=O)[O-])cc([N+](=O)[O-])c2)CC1	inactive: 109%
Cc1cccc2sc(NC(=O)[C@H](C)N3C(=O)C4CC=CCC4C3=O)nc12 (stereo not given in full)	inconclusive: 112%
CCC(C)[C@H](NC(=O)[C@@H]1Cc2ccccc2CN1C(=O)OC(C)(C)C)C(=O)NCC1CCC(C(=O)O)CC1 (stereo not given in full)	inconclusive: 110%
Oc1cccc(C(Nc2nccs2)c2ccc3cccnc3c2O)c1 (stereo not given)	inconclusive: 44.3%
Cc1cc(C(=O)Nn2cnc3ccccc3c2=O)ccc1[N+](=O)[O-]	inactive: 90%
CCOC(=O)c1cnc2c(OC)cccc2c1Nc1ccc2c(c1)OCCO2	inactive: 101%
CSc1nc2nccc(-c3ccc4c(c3)OCO4)n2n1	inconclusive: 92.9%

SMILES	binding response (% of control)
N#C/C(=N\Nc1ccccc1)C(=N)N1CCCCCC1	inconclusive: -11.8%
O=C(Nc1ccncc1)C1CCC(CNS(=O)(=O)c2cccc3nsnc23)CC1 (stereo not given)	inconclusive: 122%
Cc1onc(-c2c(Cl)cccc2Cl)c1NC(=O)NC1CCSC1 (stereo not given)	inconclusive: 108%
CNC(=O)COC(=O)c1cc(-c2ccccc2)nn1-c1ccccc1	inactive: 109%
COc1cc(OC)c2c(-c3ccccc3)cc(=O)oc2c1C(CC(=O)N1CCCC1)c1ccc2c(c1)OCO2 (stereo not given)	inconclusive: 82%
CCSc1nnc(Cc2cc(=O)[nH]c(=O)[nH]2)n1-c1cccc(C)c1	inconclusive: 109%
N#C/C(=C\Nc1ccc(F)c(Cl)c1)S(=O)(=O)c1ccccn1	inconclusive: 95.7%
CCOC(=O)c1c(N)sc(C(=O)OCCOC)c1C	inconclusive: 99.8%
O=[N+]([O-])c1ccc(N2CCN(c3ccccc3F)CC2)c(S(=O)(=O)N2CCOCC2)c1	inactive: 99.3%
CC(Cc1ccsc1)NC(=O)CCc1nnc(CCc2ccccc2)o1 (stereo not given)	inactive: 97.8%
O=S(=O)(c1cccc2cccnc12)N1CCCc2ccccc21	inconclusive: 101%
Cc1ccc(C)c(SCC(=O)Nc2ccc(S(=O)(=O)Nc3ncccn3)cc2)c1	inconclusive: 179%
COc1cc(OC)cc(-c2n[nH]c(=S)n2-c2ccc3c(c2)OCCO3)c1	inconclusive: 91.5%
Cc1ccc(C(=O)NCc2ccccc2)cc1Br	inactive: 100%
CC(C)NC(=O)NC(=O)CSc1nnc(C(F)(F)F)n1C	inconclusive: 99.1%
CNC(=S)NCC(O)c1ccc([N+](=O)[O-])cc1 (stereo not given)	inactive: 100%
Cc1cc(C)c[n+](-c2nc3ccccc3nc2C(=C=[N-])C#N)c1	inactive: 94.1% and inactive: 100%
O=C(NCc1ccccc1)c1onc(CSc2ccccn2)c1C(=O)NCc1ccccc1	inconclusive: 94.5%
Cc1ccc2nc(C)c3c(c2c1)OC(C(C)(Cl)Br)C3 (stereo not given)	inconclusive: 87.6%
CC(=O)Nc1ccc(NC(=O)C(C)OC(=O)c2ccc3c(c2)OCCO3)cc1 (stereo not given)	inconclusive: 344%
CCCC(C)c1nnc(NC(=O)C(=O)OCC)s1 (stereo not given)	inactive: 90.7%
